In PMC6599078:
No constants are given. Whether binding was seen depends on the method and setting. Binding seen in cells or lysates may run through a third protein. Here binding means that the protein was enriched with, or labelled near, the bait; the list need not be complete.

Chains of the proteins cited; added tags and fusions are not shown.
UniProt P54252: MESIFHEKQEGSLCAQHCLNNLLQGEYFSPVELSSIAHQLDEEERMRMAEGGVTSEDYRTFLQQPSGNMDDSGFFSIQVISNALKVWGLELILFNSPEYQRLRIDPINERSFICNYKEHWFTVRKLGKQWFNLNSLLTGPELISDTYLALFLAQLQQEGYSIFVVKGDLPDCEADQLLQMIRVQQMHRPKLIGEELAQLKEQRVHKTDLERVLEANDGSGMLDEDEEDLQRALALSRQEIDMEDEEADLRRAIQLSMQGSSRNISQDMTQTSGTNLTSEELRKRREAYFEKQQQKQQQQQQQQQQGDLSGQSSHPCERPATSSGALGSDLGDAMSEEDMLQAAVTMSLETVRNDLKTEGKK

Biological target: T1, TSPAN8 (immunoprecipitated for mass spectrometry and for the co-immunoprecipitation with ATXN3) (UniProt P19075)
T1 sequence: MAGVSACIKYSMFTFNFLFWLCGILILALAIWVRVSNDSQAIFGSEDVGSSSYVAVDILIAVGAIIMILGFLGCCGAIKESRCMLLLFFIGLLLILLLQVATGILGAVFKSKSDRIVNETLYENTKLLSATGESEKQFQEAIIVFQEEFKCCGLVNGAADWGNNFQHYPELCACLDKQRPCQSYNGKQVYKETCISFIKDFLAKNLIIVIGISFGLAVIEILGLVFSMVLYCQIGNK
Test: affinity purification with mass spectrometry; mass spectrometry analyses of immunoprecipitated TSPAN8

binding: binds
Substance: ATXN3 (found with immunoprecipitated TSPAN8) (from UniProt P54252 1-361) (enzyme)
